## Results of single-concentration screens

The values are deposited in ChEMBL (CHEMBL3988442, “University of Dundee, Small-Polar-MMV Screening Library” (2021)).

A: 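Growth of Mycobacterium tuberculosis over 3 days (7H9 medium with glucose and tyloxapol); the read-out is not stated. Tested at 50 µM. Direction is inferred from retests: higher values go with more growth inhibition. About 69,000 compounds were tested under these conditions; 1.1% (about 760) showed 50% or more at least once.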
B: 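Phenotypic screen: M. tuberculosis growth, cholesterol and DPPC medium, 4 days; the read-out is not stated. Tested at 50 µM. Direction is inferred from retests: higher values go with more growth inhibition. Size under these conditions: about 69,000 compounds, about 370 of them at 50% or above in at least one test.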

Values are the deposited “Percent Effect”, in %. The record does not define 0% and 100%; most values in the screen are far below 50% and negative numbers occur (in some assays of this library far below -100). This is an unselected part of the compounds tested. Two or more numbers in one place are separate tests of the same structure; such repeats can differ widely.

SMILES	A	B
Cc1ccccc1SC1CCN(C(=O)C2CNCC(=O)N2)CC1 (stereo not drawn)	7.115	3.476
CCCOc1cccc(NS(=O)(=O)c2cc(C(=O)O)cs2)c1	-40.04	-19.73
Cn1cc(CCN2CCOC(CNc3cccnn3)C2)cn1 (stereo not drawn)	-49.36	-33.18
Cn1nc(CN2CCCCC2)c2c1CN(Cc1ccoc1)C2.O=C(O)C(F)(F)F.O=C(O)C(F)(F)F	-31.24 and -4.587	-11.19
Cc1cc(=O)n2ncnc2n1CC(O)c1cc(F)ccc1F (stereo not drawn)	12.46 and -9.262	-8.659
CCCNC(=O)N1CCc2ccc(S(=O)(=O)N3CCOCC3)cc2C1	3.784	18.72
CN(C)c1cc(C(F)(F)F)nc(N2CCCC2c2ccccn2)n1 (stereo not drawn)	16.68	2.545
COCCN(CC(C)C)C(=O)c1cccc(Nc2cnccn2)c1	10.5	5.113
O=C(O)C(F)(F)F.O=C1CC[C@]2(CC[C@@H](NCc3ccsc3)CC2)N1Cc1ccccc1	-2.646	0.5761
Cc1ccn2cc(C(=O)N3CCCC3c3c(C)nn(C)c3C)nc2c1 (stereo not drawn)	7.644	-3.069
CC(NC(=O)NCCCc1n[nH]c(N)c1C#N)c1ccc(F)c(F)c1 (stereo not drawn)	-13.24	-11.94
CNc1ncc(CN(C)C(=O)c2ccccc2C2CCNC2)cn1 (stereo not drawn)	-4.298	-7.288 and -19.8
Cc1cnn(CC2CCCCN2C(=O)c2ccccc2-n2cccn2)c1 (stereo not drawn)	-13.43	7.437
Cc1ocnc1C(=O)N1CCCN(Cc2cscn2)CC1	0.6213	-9.286
Cc1ccc(CNC[C@H]2Cn3cc(-c4ccccc4)nc3CO2)cc1	-11.72 and 11.72	-4.731
COc1ccc(OC)c(C(C)Nc2ncnc3c2NC(=O)CN3)c1 (stereo not drawn)	19.71	3.715
COc1cccc(COCC(=O)N2CCC(CC(N)=O)CC2)c1	-5.312	7.844
COCCN(C)CC1CCCN1S(=O)(=O)Cc1ccccc1F (stereo not drawn)	-29.96 and -5.393	-24.77
O=C(c1cc(Br)ccc1Cl)N1CCN(Cc2ccco2)CC1	6.413	-2.507
CNC(=O)C1Cc2ccccc2CN1C(=O)CC(C)C (stereo not drawn)	-25.39	-7.283
[H][C@@]12CN(c3nccnc3C)C[C@]1(C(=O)O)CN(C1CCOCC1)C2	0.9509	-11.83
CSc1ccc(NCC(=O)NCC(=O)N2CCCC2)cc1F	-0.3632 and -3.084	-1.595
NC(=O)C(NC(=O)c1cc(Cl)c[nH]1)c1ccccc1 (stereo not drawn)	5.707	-123.7 and -4.27
CCCN1CCC(CC(=O)NCCc2nc(C)cc(C)n2)CC1	-1.203	-5.154
COc1cccc(C(C)N2CCN(S(=O)(=O)CCCF)CC2)c1 (stereo not drawn)	-48.49	-26.35
CCC(=O)N1CCC2(CC1)CN(C(C)=O)c1ccc(C)cc12	16.31	5.853
[H][C@]12CC[C@]([H])(CC(=O)N(C)C1)N2C(=O)c1ccc(-c2ccccc2)[nH]c1=O	-23.76	-10.38
Cc1cncc(NC(=O)c2ccc(CN3CC[C@H](O)C3)cc2)c1	-28.77 and -5.85	-16.43
CCOCCC1(CNC(=O)c2ccncc2Cl)CCC1	-12.26	-6.647
Oc1nc(N2CCOCC2)nc2c1CCN(Cc1ccccc1)CC2	-3.186	-2.93
[H][C@@]12CCN(C(=O)C3CCOCC3)C[C@]1(c1nc(C)no1)CCO2	2.865	12.93
CCc1nnc(CNC(=O)c2cc3c(nc2OC)CCC3)s1	-29.47	-30.6
O=C(O)c1cnc(N2CC[C@H](N3CCOCC3)[C@H](CCCO)C2)c(Cl)c1	9.697	12.1
CN(CCC(O)c1ccccc1)Cc1nc(-c2ccccc2)no1 (stereo not drawn)	11.84	4.573
[H][C@]12CC[C@]([H])(CN(S(=O)(=O)N(C)C)C1)N(Cc1ccc3nsnc3c1)C2	-0.7066 and -32.28	-29.25
O=C1CCC2(CCCN(c3ncc(F)cn3)CC2)N1Cc1ccccc1 (stereo not drawn)	1.155 and -1.974	0.1146 and -4.723
FC(F)(F)Oc1ccc(CN2CCCC(n3cncn3)C2)cc1 (stereo not drawn)	11.35 and 7.288	1.809
CN(CC1CCC1)C(=O)c1ccc(-c2nc(C3CC3)n[nH]2)cc1	7.227	1.661
O=C(NC[C@H]1OC[C@@H](NCc2cccs2)[C@@H]1O)N1CCOCC1	-10.42 and -43.98	-36.59
O=C(NCCCn1cccn1)N1CCCC1c1ccsc1 (stereo not drawn)	-27.08	-31.35 and -4.164
Cc1nc(O)cc(CCNc2nccc(CCC(F)(F)F)n2)n1	-1.991 and 1.999	-13.96
COc1c(C2CCCN2C(=O)c2csc(C3CC3)n2)c(C)nn1C (stereo not drawn)	-0.7753	-17.77
[H][C@]12CC[C@]([H])(CNC1)N2c1cc(-c2ccccc2F)nc2ccnn12	35.39	1.42
CCC(C)(NCC(=O)OC)c1nc(C)cs1 (stereo not drawn)	18.95 and 16.19	-13.92
Cc1cc(C)n(CCCN(CCN2CCOCC2)Cc2ccco2)n1	-15.14 and -7.222	-2.237
CO[C@@H](C(=O)NC1CCOCC1)c1ccccc1	-11.24	-26.13
COc1cccc(NC(=O)c2cc3c([nH]c2=O)CCCC3=O)c1	5.971 and 2.467	-0.1702
CCc1c(C)nc(C2CCCN2C(=O)c2cc(C)no2)nc1O (stereo not drawn)	14.12	-6.393
CC(C)OCc1ccc(CNC(=O)CC(F)(F)F)cc1	10.26	15.11
Cn1cc(C[C@H]2[C@H](N3CCOCC3)CCN2c2ncc(F)cn2)cn1.O=C(O)C(F)(F)F	-3.163 and -4.274	7.392
COc1ccc(Nc2cc(C)nc(C)n2)cc1N1CCCC1=O	-1.761 and -2.881	-20.03
O=C(NCc1nnc2n1CCCCC2)N(Cc1ccccn1)C1CC1	-8.987 and -13.32	-1.134
CC(C)CCN1CCN(C(=O)c2cnccn2)CC1	-17.18 and 0.8566	21.98
O=C(CS(=O)(=O)c1ccc(Cl)cc1)NC1CCCc2ccccc21 (stereo not drawn)	-7.955	-15.62
Cc1c(F)cc(C(=O)O)cc1S(=O)(=O)Nc1ccc2c(c1)OCCO2	-24.29	3.577
CCc1ccc(O)c(C(=O)NC2CCN(Cc3ccncc3)CC2)c1	-17.37	-27.11
CCOc1ccc(OC2CCCN(c3cnn(C)c3)C2=O)cc1 (stereo not drawn)	7.302	14.39
Cc1cc(NC(=O)CNC(C)(C)c2ccc3c(c2)OCCO3)no1	-11.43 and 3.215	-4.981
Cc1cnc2c(S(=O)(=O)NCC3CCS(=O)(=O)C3)cccc2c1 (stereo not drawn)	4.318	-18.21
CC(C)(C)c1csc(CCNC(=O)[C@H](c2ccccc2)n2cnnn2)n1	18.54 and 9.451	15.4
O=C(O)C(F)(F)F.O=C(c1ccsc1)N1CCc2c(COCC3CC3)cncc2C1	-6.994 and -57.47	-51.85
N[C@@H]1c2ccccc2C2(CCN(C(=O)c3ccc(=O)[nH]c3)CC2)[C@H]1O	-32.24	-15.44